From patent US20190085082A1 (CANCER RESEARCH TECHNOLOGY, published 2019)
No constants are given. Whether binding was seen depends on the method and setting. For part of these data: Binding can be weak; no strength is given.

Experiments:
[1] = target: CLEC14A with regions 97-108 of CD141 (97-108 chimera) (human); assay: flow cytometry, HEK293T cells transfected with the chimera of CLEC14A carrying loop residues 97-108 of thrombomodulin (GFP-positive cells gated)
[2] = target: CLEC14A with regions 1-42 of CD141 (1-42 chimera); assay: flow cytometry on transfected cells; chimera said not to fold correctly
[3] = target: CLEC14A with regions 97-108 of CD141 (97-108 chimera) (human); assay: flow cytometry on transfected HEK293T cells

B1: CRT-3 anti-CLEC14A monoclonal antibody (antibody, IgG1, V domains shown)
VH: EVQLQQSGTVLARPGASVKMSCKASGYTFTSYWMHWVKQRPGQGLEWIGAIYPGNSDTSYNQKFKGKAKLTAVTSTSTAYMELSSLTNEDSAVFYCTHYYGSDYAMDYWGQGTSVTV
VL: QIVLTQSPAIMSASLGERVTMTCTASSSVSSSYLHWYQQKPGSSPKLWIYSTSNLASGVPARFSGSGSGTSYSLTISSMEAEDAATYYCHQYHRSPRTFGGGTKLEIKR
[1]
  binding: binds
[2]
  binding: no binding
[3]
  binding: binds
